Measurements taken from article PMC10208570, “Peptidomimetic antibiotics disrupt the lipopolysaccharide transport bridge of drug-resistant Enterobacteriaceae” (Science Advances, 2023).
These are yes or no findings as the source states them, for the method shown.

Molecular target: LptC^AA (E. coli), periplasmic domain LptC(25-191) Y60A R61A (E. coli (ATCC 25922)) (UniProt P0ADV9)
Experiment: SEC-MALS; purified Lpt proteins and their mixtures (figs. S4 and S5); both purified

## LptC^AA (E. coli), periplasmic domain LptC(25-191) Y60A R61A (from UniProt P0ADV9 25-191) (domain or fragment)
  binding: no binding
